From the supplement of paper PMC12823440, “Inhibitors supercharge kinase turnover through native proteolytic circuits” (Nature, 2025)
Counter-ions that a name gives are not always drawn. The list shows a part of the results. Hit calls seldom repeat between salt and free forms of one compound.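 In K562 cells expressing nanoluciferase-fused kinases, luminescence was recorded at 4 h intervals between 2 and 18 h, normalized as percent of control with DMSO at 100% and a positive control at 0%. A significant (2 sigma) signal drop marks a time point as decreased. The authors' rule for a hit is not shown and takes in more than the number of time points.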

Sequences of proteins named here, by UniProt entry; tags and fusion partners are left off.
UniProt P07949, whole entry M918T, looked up: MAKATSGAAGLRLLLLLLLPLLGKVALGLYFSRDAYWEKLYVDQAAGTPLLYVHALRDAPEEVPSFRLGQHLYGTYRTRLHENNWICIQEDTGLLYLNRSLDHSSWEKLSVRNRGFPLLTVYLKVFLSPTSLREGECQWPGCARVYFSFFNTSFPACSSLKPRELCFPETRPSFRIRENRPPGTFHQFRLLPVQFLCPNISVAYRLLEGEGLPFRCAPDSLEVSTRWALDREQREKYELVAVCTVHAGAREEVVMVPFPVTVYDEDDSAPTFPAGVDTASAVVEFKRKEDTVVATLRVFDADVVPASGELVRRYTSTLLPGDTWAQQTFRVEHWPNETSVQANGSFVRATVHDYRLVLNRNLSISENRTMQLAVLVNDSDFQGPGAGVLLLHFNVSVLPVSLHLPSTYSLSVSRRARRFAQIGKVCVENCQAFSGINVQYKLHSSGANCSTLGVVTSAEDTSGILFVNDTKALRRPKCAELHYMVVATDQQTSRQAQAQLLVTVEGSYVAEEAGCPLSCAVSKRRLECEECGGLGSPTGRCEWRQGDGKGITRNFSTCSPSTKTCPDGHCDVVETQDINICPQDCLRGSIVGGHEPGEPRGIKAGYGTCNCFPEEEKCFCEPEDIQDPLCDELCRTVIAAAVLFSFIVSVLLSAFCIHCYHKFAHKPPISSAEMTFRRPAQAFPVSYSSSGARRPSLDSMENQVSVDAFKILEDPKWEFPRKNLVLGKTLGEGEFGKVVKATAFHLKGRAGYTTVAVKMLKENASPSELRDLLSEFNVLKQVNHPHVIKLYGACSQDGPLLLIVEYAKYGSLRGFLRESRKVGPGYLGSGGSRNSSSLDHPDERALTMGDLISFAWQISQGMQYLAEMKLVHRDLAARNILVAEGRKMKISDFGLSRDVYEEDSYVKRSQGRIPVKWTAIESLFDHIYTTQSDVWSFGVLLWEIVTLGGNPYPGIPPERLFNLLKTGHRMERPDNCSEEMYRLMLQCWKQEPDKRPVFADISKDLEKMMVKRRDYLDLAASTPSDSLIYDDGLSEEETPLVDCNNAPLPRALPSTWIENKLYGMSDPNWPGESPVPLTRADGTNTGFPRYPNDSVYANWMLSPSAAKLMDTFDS

Biological target: RET_M918T (clone: RET_mut) (UniProt P07949)
Test: kinase-Nluc reporter destabilization hit call (1 = scored as downregulated) (binary); higher = compound decreases kinase abundance
Details: 2.5 µM; K562; 2-18 h

kinase-Nluc reporter destabilization hit call, inactive:
Cc1cccc(-c2[nH]c(CNc3ccccc3F)nc2-c2ccc3ncnn3c2)n1 [Vactosertib] 0, c1cc(-c2cnn3cc(-c4ccc(OCCN5CCCCC5)cc4)cnc23)ccn1 [Dorsomorphin (dihydrochloride)] 0, Oc1cccc(-c2nc(N3CCOCC3)c3oc4ncccc4c3n2)c1 [PI-103 (Hydrochloride)] 0, C=CC(=O)Nc1cc(Nc2nccc(-c3cn(C)c4ccccc34)n2)c(OC)cc1N(C)CCN(C)C [Osimertinib mesylate] 0, CNC(=O)c1cc(Oc2ccc(NC(=O)Nc3ccc(Cl)c(C(F)(F)F)c3)c(F)c2)ccn1 [Regorafenib (monohydrate)] 0, Cc1cccc(-c2[nH]c(CNc3ccccc3F)nc2-c2ccc3ncnn3c2)n1 [Vactosertib (Hydrochloride)] 0, COc1ccc(S(=O)(=O)Nc2ccccc2CN(C)C/C=C/c2ccc(Cl)cc2)cc1 [KN-92 (hydrochloride)] 0, CN(C)C(=O)c1cc2cnc(Nc3ccc(N4CCNCC4)cn3)nc2n1C1CCCC1 [Ribociclib hydrochloride] 0
